PubChem BioAssay AID1053208 – Peter MacCallum Cancer Centre, 2014

- Purpose: 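Genes whose silencing cuts survival of bone tumour cells only with doxorubicin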 (primary screen)
- Cell system: mouse osteosarcoma cells, early-passage culture from an engineered mouse model of fibroblastic bone tumour
- Reagents: siRNA pool against mouse genes, 40 nM
- Duration: about 120 h (48 h before drug, then 72 h with drug)
- Conditions: doxorubicin 100 nM for 72 h, roughly 30-40% inhibitory dose
- Read-out: 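Viability read as ATP luminescence after 72 h of 100 nM doxorubicin or none, duplicate wells averaged, scaled to non-targeting siRNA, then expressed as robust z-scores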
- Direction: viability z-score with doxorubicin: higher = more viable cells under doxorubicin; viability z-score without drug: higher = more viable cells with knock-down alone
- Active means: 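a pool counts as active when its viability z-score with doxorubicin is -2 or below and its z-score without drug lies between -2 and 2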
This is a random part of about 17,000 reagents. 788 of them (4.7%) were called active. 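Calls rest on z-score classes alone; an extra cut-off of viability at most 70% of control was not applied to them.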 Further read-outs or replicates are left out here.

With knock-down of Pde10a the results were combined z-score class no change with or without drug; viability z-score with doxorubicin -0.22; viability z-score without drug -0.17; inactive.
For Ube2d2a, the entry reads combined z-score class no change with or without drug; viability z-score with doxorubicin -1.12; viability z-score without drug -0.67; inactive.
After knock-down of Gypc, the record shows combined z-score class no change with or without drug; viability z-score with doxorubicin 0; viability z-score without drug -1.01; inactive.
DDX46 gave combined z-score class no change with or without drug; viability z-score with doxorubicin 0.67; viability z-score without drug -0.17; inactive.
Against Dcaf4 the deposit lists combined z-score class no change with or without drug; viability z-score with doxorubicin -1.35; viability z-score without drug -0.51; inactive.
Against Or5p53, the values are combined z-score class no change with or without drug; viability z-score with doxorubicin -1.8; viability z-score without drug -1.85; inactive.
Calml4 gave combined z-score class no change with or without drug; viability z-score with doxorubicin -0.34; viability z-score without drug -0.84; inactive.
Or5c1 showed combined z-score class no change with or without drug; viability z-score with doxorubicin -0.9; viability z-score without drug -1.18; inactive.
Tead1 gave combined z-score class no change with or without drug; viability z-score with doxorubicin -0.22; viability z-score without drug -0.84; inactive.
With knock-down of Pfdn1, the record shows combined z-score class no change with or without drug; viability z-score with doxorubicin 1.57; viability z-score without drug 0; inactive.
Depletion of Emc9 gave: combined z-score class low cell count with doxorubicin only; viability z-score with doxorubicin -2.59; viability z-score without drug 0.84; active.
Sdha scored combined z-score class no change with or without drug; viability z-score with doxorubicin 0; viability z-score without drug -0.34; inactive.
With knock-down of Stk-ps2 the results were combined z-score class no change with or without drug; viability z-score with doxorubicin -1.46; viability z-score without drug 0.84; inactive.
After knock-down of Kcnj10 the results were combined z-score class no change with or without drug; viability z-score with doxorubicin -1.35; viability z-score without drug -1.18; inactive.
For Gpr135, the values are combined z-score class no change with or without drug; viability z-score with doxorubicin 0.9; viability z-score without drug 1.01; inactive.
Knock-down of Pold3 resulted in: combined z-score class low cell count with and without drug; viability z-score with doxorubicin -3.04; viability z-score without drug -2.02; inactive.
Against Rcan1, the values are combined z-score class no change with or without drug; viability z-score with doxorubicin 0.22; viability z-score without drug -0.84; inactive.
After knock-down of Nrcam the results were combined z-score class no change with or without drug; viability z-score with doxorubicin 0.11; viability z-score without drug 0.34; inactive.
For Sptlc1, the values are combined z-score class no change with or without drug; viability z-score with doxorubicin -0.45; viability z-score without drug 0.34; inactive.
For Nphs2, the entry reads combined z-score class no change with or without drug; viability z-score with doxorubicin 1.01; viability z-score without drug -0.17; inactive.
With knock-down of Zbtb8a, the record shows combined z-score class no change with or without drug; viability z-score with doxorubicin 0.45; viability z-score without drug -0.51; inactive.
With knock-down of C730034F03Rik, the screen gave combined z-score class no change with or without drug; viability z-score with doxorubicin -0.67; viability z-score without drug 0.84; inactive.
Depletion of Utf1 gave: combined z-score class no change with or without drug; viability z-score with doxorubicin -1.35; viability z-score without drug -0.34; inactive.
With knock-down of Tex47 the results were combined z-score class no change with or without drug; viability z-score with doxorubicin -0.9; viability z-score without drug -0.34; inactive.
After knock-down of Foxn1 the results were combined z-score class no change with or without drug; viability z-score with doxorubicin 1.12; viability z-score without drug -0.51; inactive.
Iars2 gave combined z-score class low cell count with doxorubicin only; viability z-score with doxorubicin -2.36; viability z-score without drug -0.84; active.
Silencing of Siral2 came out at: combined z-score class no change with or without drug; viability z-score with doxorubicin 0.9; viability z-score without drug 0.17; inactive.
For Ndufa7 the deposit lists combined z-score class low cell count with doxorubicin only; viability z-score with doxorubicin -2.02; viability z-score without drug -1.85; active.

4 consecutive entries from above, quoted:
Nrcam → combined z-score class = no change with or without drug; viability z-score with doxorubicin = 0.11; viability z-score without drug = 0.34; Outcome = inactive
Sptlc1 → combined z-score class = no change with or without drug; viability z-score with doxorubicin = -0.45; viability z-score without drug = 0.34; Outcome = inactive
Nphs2 → combined z-score class = no change with or without drug; viability z-score with doxorubicin = 1.01; viability z-score without drug = -0.17; Outcome = inactive
Zbtb8a → combined z-score class = no change with or without drug; viability z-score with doxorubicin = 0.45; viability z-score without drug = -0.51; Outcome = inactive
